Patent EP2664619B1, “Purine derivatives as tools for screening anti-Alzheimer compounds” (Manros Therapeutics, priority 2012, dated 2013)

System: Aβ42 production
Assay: Sandwich ELISA measurement of Aβ42 levels in supernatant of treated N2a-APP695 cells
Format: cell-based
Details: Mus musculus, 18 h, read-out: EC50 (µM) at inducing Aβ42 production
Description: Mouse neuroblastoma cells (N2a cells) or N2a-APP695 cells (N2a cell line stably transfected with APP695, an amyloid precursor protein) were cultured in an essential medium composed of Dulbecco's minimal essential medium (DMEM) and of OptiMEM® (1:1, v/v) (Gibco®) containing 0.2 mg/mL Geniticin (Geneticin® Selective Antibiotic, Gibco®) and 5 % fetal bovine serum (FBS, Gibco®, EU approved origin) in a humidified, 5% CO2 incubator at 37°C. Routinely, cells were split without use of Trypsin every 4/5 days. They were first rinsed with PBS (Gibco) and detached from the plate bottom using 4 mL Versene (Gibco) at room temperature for 3-4 min. […]
The N2a-APP695 cells were seeded at 10.000 cells/well in a 96 well plate with modified media (0.5% FBS) and incubated overnight. Cells were treated with fresh media comprising different compounds according to the invention (equal quantity of DMSO sold by Sigma®). […]
Then, Aβ38, Aβ40 and Aβ42 levels were measured in a sandwich ELISA (Enzyme-Linked ImmunoSorbent Assay) using a combination of monoclonal antibody 6E10 (mAb 6E10) (sold by Covance® under the reference SIG-39320) and biotinylated polyclonal Aβ38, Aβ40 or Aβ42 antibodies (provided by Dr. P.D. Mehta, IBR, Staten Island, USA). […]
The optical density was finally measured at 490 nm in a microELISA reader (sold by BioTek Instrument, reference E1 800, Gen 5 software). […]

CC[C@H](CO)Nc1nc(NCc2ccccc2)c2ncn(C(C)C)c2n1 [Compound 2, reference compound]
EC50: 100 µM
